In patent EP0454302A2, “Tuftsin derivatives” (BANYU PHARMACEUTICAL CO., LTD., priority 1990, dated 1991):
At least one peptide structure holds a part that was inferred or is arguable (an end, a ring closure or a residue). Residues, ends and D or L forms follow the SMILES beside them.

Key:
[1] = test system: mouse peritoneal macrophage; assay: Phagocytic ability of mouse peritoneal macrophages with sheep erythrocytes (SRBC) as foreign substance; assay type: cell-based; conditions: for T/C (ability to activate the macrophages for their phagocytic activity): no peptide added = 100%; for concentration range for activation of macrophages: effective concentration range in phagocytosis test
mouse spleen cells = assay: Stimulation of blastogenesis of mouse spleen cells by LPS or Con A (3H-thymidine incorporation); assay type: cell-based; conditions: with Con A or LPS; results as T/C %

SMILES: N=C(N)NCCC[C@@H]1NC(=O)[C@@H]2CCCN2C(=O)[C@@H](NC(=O)[C@@H](O)[C@H](N)Cc2ccccc2)CCCCNC1=O [Example 1, (2S,3R)-AHPA-cyclo(-N^ε-(S)-lysyl-(S)-prolyl-(S)-arginyl-)]
- T/C (ability to activate the macrophages for their phagocytic activity) ([1]; 0.015 µg/ml): 144%
- T/C (ability to activate the macrophages for their phagocytic activity) ([1]; 0.05 µg/ml): 171%
- concentration range for activation of macrophages [1]: very wide

SMILES: N=C(N)NCCC[C@@H]1NC(=O)[C@@H]2CCCN2C(=O)[C@@H](NC(=O)[C@@H](O)[C@H](N)CC2CCCCC2)CCCCNC1=O [Example 2, (2S,3R)-AHCA-cyclo(-N^ε-(S)-lysyl-(S)-prolyl-(S)-arginyl-)]
- T/C (ability to activate the macrophages for their phagocytic activity) ([1]; 0.015 µg/ml): 145%
- T/C (ability to activate the macrophages for their phagocytic activity) ([1]; 0.15 µg/ml): 166%
- concentration range for activation of macrophages [1]: very wide

SMILES: C[C@@H](O)[C@H](N)C(=O)N[C@@H](CCCCN)C(=O)N1CCC[C@H]1C(=O)N[C@@H](CCCNC(=N)N)C(=O)O [tuftsin, Thr-Lys-Pro-Arg] (H-TKPR-OH)
- stimulation of blastogenesis (mouse spleen cells): did not show any stimulation
- T/C (ability to activate the macrophages for their phagocytic activity) ([1]; 0.015 µg/ml): 137%
- concentration range for activation of macrophages [1]: narrow
